The values below come from PubChem BioAssay AID2685 (National Center for Advancing Translational Sciences (NCATS), 2010).

The list shows a part of the results. These are further read-outs of the screen, such as a control signal, another cell line or another target. No call is given for them. Most of these compounds were active or inconclusive in the main read-out, so they are no random draw. Potencies come from curve fits of mixed quality, noted in brackets.

As usually defined, the AC50 is the concentration giving half of the maximal activity seen. Read a low AC50 as greater potency.

The experiment is described as follows: qHTS Assay for Lipid Storage Modulators in Drosophila S3 Cells.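 As to cell number change: cells counted by Cell Tracker Red CMTPX staining in the red channel.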 The conditions noted are these: BODIPY lipid droplet fluorescence, 18-24 h; for cell number change: measured here: cell count max response, cells fed with added oleic acid. An outline of the steps:
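Laser-scanning cytometry quantifies lipid droplet accumulation (500–530 nm total intensity; droplet/cell object ratio) in oleic acid-fed (400 uM added) Drosophila S3 cells treated with a concentration series. 20 uM Triacsin C defined 100% inhibition.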
(In general: Quantitative high-throughput screening tests each substance at several concentrations.)

Where [1] appears, read: measured here: cell number channel AC50, cells fed with added oleic acid.
The mark [2] stands for this setting: measured here: lipid fluorescence (Fed channel) AC50, cells fed with added oleic acid.

In the case of `CCS(=O)(=O)Nc1ccc(C2=NN(C(=O)c3ccco3)C(c3ccco3)C2)cc1` (centres undefined), the cell number change worked out at 79.5%. Besides, under setting [1], the concentration at half-maximal activity (AC50) is 8.2 µM [rising, partial curve].
As to `COc1ccc(C(=O)/C=C2/c3ccccc3CC(C)(C)N2C)cc1OC`, the cell number change was 2.38%. For the same compound, under setting [2], the AC50 is 0.146 µM [rising, full curve, poor fit].
Take `Cc1cccc(CNC(=O)c2ccccc2NC(=O)C2=CSCCO2)c1`: the cell number change was -33.3%. Besides, the AC50 under setting [1] is 18.4 µM [falling, single point].
For the compound `COc1ccc(NS(=O)(=O)c2ccc3c(c2)CCCN3C(C)=O)cc1`, the cell number change stood at 14.1%. For the same compound, the AC50 under setting [2] is 29.1 µM [rising, single point].
As for `O=C(Cc1ccccc1)N/N=C/c1cc2c(cc1Cl)OCO2`, the cell number change is 1.09%. For the same compound, under setting [2], the AC50 is 0.731 µM [rising, partial curve].
As to `CC(=O)N1c2ccc(S(=O)(=O)NCCC(=O)N3CCCC(C)C3)cc2CC1C` (centres undefined), the cell number change was found to be 5.6%. Moreover, the AC50 under setting [1] is 0.206 µM [rising, full curve, poor fit].
Regarding `O=C(NNS(=O)(=O)c1ccc(F)cc1)C1CCN(S(=O)(=O)c2ccccc2)CC1`, the cell number change was -10.8%.
For `O=C(O)CC/C(=N\NC(=O)CNC(=O)c1ccc(F)cc1)c1ccccc1`, under setting [1], the AC50 was 0.731 µM [falling, single point].
As to `CCCc1cc(=O)oc2c(CN3CCCC3)c(O)c(Cl)cc12`, the AC50 under setting [1] was 0.731 µM [rising, full curve, poor fit].
Regarding `COc1nc(NCc2ccco2)nc(N2CCC(C)CC2)n1`, the cell number change was -44.9%. Further, under setting [1], the half-maximal activity concentration (AC50) is 32.6 µM [falling, single point]. Further, the AC50 under setting [2] was 29.1 µM [falling, single point].
As for `COCCN=C1Sc2nc3cc(C)c(C)cc3cc2CN1Cc1cccs1`, the cell number change is -13.2%.
Turning to `CCc1ccccc1NC(=O)[C@@H]1CCC(=O)N1C1OC(=O)c2c1ccc(OC)c2OC` (some centres undefined), the cell number change stood at 11%. Also, the AC50 under setting [2] was 29.1 µM [falling, single point].
In the case of `O=C(NCCc1ccccc1)c1cnc2ccccc2n1`, the cell number change stood at 24.3%. In addition, under setting [1], the AC50 is 0.291 µM [rising, full curve, poor fit].
Consider `O=C(CS(=O)(=O)c1ccc(Cl)cc1)NCc1ccccc1`, for which the cell number change was found to be 15.5%. Also, under setting [2], the AC50 is 16.4 µM [rising, partial curve].
With `Cc1[nH]nc(S(=O)CC(=O)O)c1[N+](=O)[O-]` (centres undefined), the cell number change is 22.4%. Also, the AC50 under setting [1] is 2.06 µM [rising, full curve, poor fit]. Also, the AC50 under setting [2] is 2.59 µM [rising, full curve].
For `COC(=O)Cc1ccc(NC(=S)N2CCN(c3cccc(O)c3)CC2)cc1`, the cell number change is -4.26%. Moreover, the AC50 under setting [2] was 20.6 µM [falling, single point].
For the compound `O=C(NN1C(=O)C2C3C=CC(C4CC34)C2C1=O)c1cccc(Cl)c1` (centres undefined), the cell number change is 11.1%. Further, under setting [2], the AC50 is 18.4 µM [rising, single point].
For `OCCCN1CCN(CCOc2ccccc2-c2ccccc2)CC1`, the cell number change is -5.68%. Further, the half-maximal activity concentration (AC50) under setting [2] is 0.58 µM [rising, single point].
As for `CCCCc1cc(=O)oc2cc(OCC(=O)NCCN3CCOCC3)ccc12`, the cell number change was -10.1%. For the same compound, the AC50 under setting [2] is 6.51 µM [rising, single point].
For the compound `O=C(Nc1nccs1)c1ccc(-c2ccc(Cl)cc2)o1`, the cell number change was -28.6%. Moreover, under setting [2], the half-maximal activity concentration (AC50) was 16.4 µM [falling, single point].
Consider `CNC(=O)C1=C(C)Nc2nc3ccccc3n2C1c1cccc(OC)c1` (centres undefined), for which the cell number change is -30.8%. For the same compound, the AC50 under setting [1] is 16.4 µM [falling, single point].
For the compound `CCCCCN(C(=O)CCC(=O)OCc1cccc(Cl)c1)c1c(N)n(CCCC)c(=O)[nH]c1=O`, the AC50 under setting [1] is 2.91 µM [rising, partial curve, poor fit].
For `O=C(CN1CCN(S(=O)(=O)c2ccc(Br)cc2)CC1)Nc1ccccc1F`, the cell number change is -11.3%. Besides, under setting [2], the half-maximal activity concentration (AC50) was 3.66 µM [rising, single point].
As for `CC(C)c1ccc(C(=O)NNC(=O)c2ccncc2)cc1`, the cell number change is 7.56%. Besides, under setting [2], the AC50 is 29.1 µM [rising, single point].
In the case of `COc1ccccc1NC(=O)N1CCCC1C(=O)NCc1ccccc1Cl` (centres undefined), the cell number change is -34.6%. Besides, the AC50 under setting [1] was 16.4 µM [falling, single point]. In addition, the AC50 under setting [2] is 20.6 µM [falling, single point].
As to `CCn1c(=O)cc(C(F)(F)F)[nH]c1=S`, the cell number change came out at 11.5%.
For `O=C1c2ccccc2NC(c2ccc([N+](=O)[O-])cc2)N1O` (centres undefined), the AC50 under setting [2] is 6.51 µM [falling, partial curve].
As to `COc1cc(C)nc(Oc2ccc(=O)[nH]n2)n1`, the cell number change is -3.25%. The concentration at half-maximal activity (AC50) under setting [2] was 6.51 µM [falling, partial curve, poor fit].
With `CCCn1c(=O)[nH]c(=O)c2c1nc(-c1ccc3c(c1)OCCO3)n2CCN1CCOCC1`, the cell number change was 13.6%. Also, under setting [1], the AC50 is 0.651 µM [falling, single point]. The half-maximal activity concentration (AC50) under setting [2] was 29.1 µM [rising, single point].
`O=C(c1ccc(Cl)c(S(=O)(=O)N2CCCCCC2)c1)N1CCN(c2ccc(O)cc2)CC1`: the cell number change was -12.5%. The AC50 under setting [2] is 29.1 µM [falling, single point].
In the case of `CCCCOC(=O)CSc1nnc(-c2ccc(Cl)cc2Cl)o1`, the cell number change worked out at 22.3%.
For `COc1ccccc1C(=O)NNC(=O)c1ccc(C)cc1`, the cell number change came to 3.67%. For the same compound, the half-maximal activity concentration (AC50) under setting [2] is 16.4 µM [rising, single point].
For the compound `O=C(Nc1ccc2[nH]ncc2c1)c1ccccc1`, the cell number change amounted to 5.26%.
For `Cc1c(NC(=O)C(C)OC(=O)/C=C/c2ccccc2)c(=O)n(-c2ccccc2)n1C` (centres undefined), the AC50 is 6.51 µM [rising, single point] under setting [1] and 5.8 µM [rising, single point] under setting [2].
On to `O=C(NNC(=O)c1cc(-c2ccccc2)nc2ccccc12)Nc1cccc(Cl)c1`, for which the cell number change was -31.5%. In addition, the AC50 under setting [1] was 16.4 µM [falling, single point]. Besides, the half-maximal activity concentration (AC50) under setting [2] was 2.59 µM [rising, partial curve].
Take `O=C1CC(N2CCN(c3ncccn3)CC2)C(=O)N1CCc1ccccc1` (centres undefined): the cell number change is -16.2%. For the same compound, under setting [1], the concentration at half-maximal activity (AC50) is 6.51 µM [falling, single point]. In addition, the AC50 under setting [2] is 6.51 µM [falling, single point].
Consider `COc1cc(-c2nc3ccccn3c2NCc2ccccc2)ccc1SC1CCCCC1`, for which the cell number change is -65.7%. The AC50 under setting [1] was 20.6 µM [falling, partial curve].
Consider `CCCCOC(=O)Nc1cccc(Cl)c1C`, for which the cell number change stood at 14.3%.
For `Cc1ccc(NC(=O)COC(=O)CCc2nc3ccccc3n2-c2ccccc2)c(C)c1`, the cell number change came to 15.7%. Under setting [2], the AC50 was 0.517 µM [rising, single point].
For `CC(CNS(=O)(=O)c1ccccc1)Sc1nncn1C` (centres undefined), the cell number change is 32.6%. Further, under setting [2], the AC50 is 0.00731 µM [falling, full curve, poor fit].
Turning to `CSC1=C(C#N)C(CC(C)C)C2=C(CCCC2=O)N1` (centres undefined), the cell number change turned out to be 1.29%. Moreover, the AC50 under setting [2] was 0.116 µM [falling, full curve, poor fit].
On to `Cc1cc(C)c(S(=O)(=O)N2CCCOC2CNC(=O)C(=O)NCc2ccco2)c(C)c1` (centres undefined), for which the cell number change is -12.9%. The AC50 under setting [1] was 0.0058 µM [rising, full curve, poor fit].
Turning to `Cc1cc(=O)[nH]c(SCC(=O)Nc2nnc(CC(C)C)s2)n1`, the cell number change came out at 4.01%. Moreover, the AC50 under setting [2] is 14.6 µM [rising, partial curve].
On to `O=C(CCc1c[nH]c2ccccc12)NCc1ccc2c(c1)OCO2`, for which the cell number change was -14.2%. Also, under setting [2], the AC50 was 20.6 µM [rising, partial curve, poor fit].
As to `Cc1ccc(S(=O)(=O)NCCC(=O)Nc2nnc(C)s2)cc1`, the cell number change worked out at 16.2%. Besides, under setting [2], the AC50 was 20.6 µM [rising, single point].
Turning to `Cc1ccccc1NC(=O)C1CCN(S(=O)(=O)c2cccs2)CC1`, the cell number change was -3.01%. Also, the AC50 under setting [1] is 0.0366 µM [rising, partial curve, poor fit]. Besides, the AC50 under setting [2] is 0.00461 µM [rising, full curve, poor fit].
Regarding `COC(=O)c1cc(Cl)c(NC(=O)/C=C/c2ccc(OC)cc2)cc1OC`, the cell number change is -12.2%. Moreover, the AC50 under setting [1] was 5.17 µM [rising, single point].
For the compound `O=C(N/N=C/c1ccc(Cl)cc1)c1cc2c(s1)-c1ccccc1CC2`, the cell number change was 35.5%. In addition, under setting [1], the half-maximal activity concentration (AC50) is 0.731 µM [rising, partial curve].
For `CC1CCC(NS(=O)(=O)c2ccc3c(c2)CC(=O)N3)CC1` (centres undefined), the cell number change is -7.37%. Besides, the AC50 under setting [2] was 23.1 µM [rising, single point].
Regarding `CC(=O)NNc1ncnc2c1cnn2-c1ccc(C)c(Cl)c1`, the cell number change was -12.8%. Moreover, the AC50 under setting [1] was 0.103 µM [falling, full curve, poor fit].
Consider `COC(=O)CC/C(C)=N\Nc1ccc([N+](=O)[O-])cc1[N+](=O)[O-]`, for which the cell number change was -28.3%. In addition, the AC50 under setting [2] is 6.51 µM [falling, single point].
As for `COC(=O)c1cc(S(=O)(=O)Nc2ccc(C)c(F)c2)c[nH]1`, the cell number change was -0.599%. Further, the AC50 under setting [2] is 0.58 µM [falling, full curve, poor fit].
Regarding `CCOc1ccc(Nc2oc(-c3ccccc3Cl)nc2C#N)cc1`, the cell number change was found to be 14.5%. Under setting [2], the AC50 is 8.2 µM [rising, partial curve].
For `CCCOc1ccc(CNC(=O)C2CCN(c3nnc(N4CCCC4=O)s3)CC2)cc1`, the cell number change came out at 13.3%. Moreover, under setting [2], the AC50 was 3.26 µM [rising, partial curve].
For `O=C(c1ccc2c(c1)OCCO2)N1CCCCC1`, the cell number change is -193%. Further, the AC50 under setting [1] was 20.6 µM [falling, partial curve].
For `COc1cccc(-c2cc3c(=O)n(-c4ccccc4)c(=S)[nH]c3s2)c1`, the cell number change was -20.8%. In addition, under setting [2], the half-maximal activity concentration (AC50) is 0.291 µM [falling, full curve, poor fit].
Take `Cc1ccc(S(=O)(=O)Nc2ccc3oc(=O)sc3c2)c(C)c1`: the cell number change is -115%. Moreover, the AC50 under setting [2] was 23.1 µM [falling, single point].
Turning to `COc1ccc(NC(=O)c2ccc([N+](=O)[O-])s2)c([N+](=O)[O-])c1`, the cell number change was -45.6%. Also, the half-maximal activity concentration (AC50) under setting [1] is 1.84 µM [falling, full curve]. Moreover, under setting [2], the AC50 was 0.146 µM [falling, full curve, poor fit].
On to `CCN(Cc1ccccc1)c1c(C(=O)O)cnc2c1cnn2C`, for which the cell number change stood at 6.19%. Further, the AC50 under setting [2] was 1.16 µM [rising, single point].
In the case of `CCOC(=O)C1CCN(C(=O)CCc2nc3ccccc3[nH]2)CC1`, the cell number change amounted to 139%. Besides, under setting [1], the AC50 was 20.6 µM [rising, single point]. The AC50 under setting [2] was 7.31 µM [rising, partial curve].
